In publication PMC12489036:
These are yes or no findings as the source states them, for the method shown. Binding seen in cells or lysates may run through a third protein. Some binding calls cover weakened binding; strength is not graded here. Sequences can lack the tags named with a protein.

By UniProt entry, the sequences of proteins in these tests, tags left out.
UniProt Q9UBN7: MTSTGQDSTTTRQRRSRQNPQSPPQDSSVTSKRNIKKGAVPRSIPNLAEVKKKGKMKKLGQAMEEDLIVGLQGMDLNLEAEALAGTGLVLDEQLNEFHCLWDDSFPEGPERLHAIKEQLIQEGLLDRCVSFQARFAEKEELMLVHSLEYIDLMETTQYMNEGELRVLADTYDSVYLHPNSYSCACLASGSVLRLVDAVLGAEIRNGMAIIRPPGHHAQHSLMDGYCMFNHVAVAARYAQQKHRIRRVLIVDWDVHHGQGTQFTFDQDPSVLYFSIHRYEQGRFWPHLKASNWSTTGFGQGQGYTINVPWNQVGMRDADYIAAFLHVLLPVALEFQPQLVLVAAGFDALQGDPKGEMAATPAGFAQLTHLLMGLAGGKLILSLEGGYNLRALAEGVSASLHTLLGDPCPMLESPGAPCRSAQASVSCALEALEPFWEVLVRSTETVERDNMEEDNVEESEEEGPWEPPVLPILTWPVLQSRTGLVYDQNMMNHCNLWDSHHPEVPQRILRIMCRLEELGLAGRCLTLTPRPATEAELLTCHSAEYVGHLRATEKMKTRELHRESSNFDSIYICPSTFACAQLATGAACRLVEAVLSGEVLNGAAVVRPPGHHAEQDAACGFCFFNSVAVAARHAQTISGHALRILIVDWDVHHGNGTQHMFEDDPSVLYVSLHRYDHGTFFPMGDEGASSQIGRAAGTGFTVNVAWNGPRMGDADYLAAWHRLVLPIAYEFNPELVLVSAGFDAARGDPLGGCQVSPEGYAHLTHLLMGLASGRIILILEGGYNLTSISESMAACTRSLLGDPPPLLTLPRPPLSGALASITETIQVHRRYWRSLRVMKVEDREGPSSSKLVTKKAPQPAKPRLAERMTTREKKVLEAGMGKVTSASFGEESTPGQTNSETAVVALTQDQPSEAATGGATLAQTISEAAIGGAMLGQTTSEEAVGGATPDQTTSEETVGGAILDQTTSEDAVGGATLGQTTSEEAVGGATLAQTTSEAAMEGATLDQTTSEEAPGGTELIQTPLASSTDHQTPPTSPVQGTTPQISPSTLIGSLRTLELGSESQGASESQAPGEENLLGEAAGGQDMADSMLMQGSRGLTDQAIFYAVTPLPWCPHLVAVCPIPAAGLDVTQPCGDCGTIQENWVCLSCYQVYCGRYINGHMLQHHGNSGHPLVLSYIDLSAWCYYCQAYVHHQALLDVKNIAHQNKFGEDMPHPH

Target: T1, FLAG-SAE2, wild type, doxycycline-inducible in U2OS cells (human) (UniProt Q9UBT2)
T1 sequence: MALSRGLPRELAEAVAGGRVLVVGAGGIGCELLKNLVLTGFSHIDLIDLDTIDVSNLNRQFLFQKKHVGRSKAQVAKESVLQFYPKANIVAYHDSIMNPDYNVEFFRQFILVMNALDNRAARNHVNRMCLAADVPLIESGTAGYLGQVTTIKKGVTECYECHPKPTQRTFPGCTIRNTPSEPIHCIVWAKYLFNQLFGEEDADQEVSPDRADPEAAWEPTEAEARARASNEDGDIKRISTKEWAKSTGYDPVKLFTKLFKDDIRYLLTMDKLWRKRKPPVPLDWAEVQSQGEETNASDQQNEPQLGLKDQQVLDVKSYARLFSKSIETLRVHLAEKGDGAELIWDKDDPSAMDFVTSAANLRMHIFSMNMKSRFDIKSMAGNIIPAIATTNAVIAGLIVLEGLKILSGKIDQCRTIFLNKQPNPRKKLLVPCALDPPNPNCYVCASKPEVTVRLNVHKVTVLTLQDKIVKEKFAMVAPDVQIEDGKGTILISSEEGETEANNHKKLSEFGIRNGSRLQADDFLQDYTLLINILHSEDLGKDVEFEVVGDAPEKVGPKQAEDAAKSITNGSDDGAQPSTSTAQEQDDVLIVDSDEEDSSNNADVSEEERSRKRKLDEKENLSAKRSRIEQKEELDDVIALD
Test: co-IP; anti-FLAG (M2) agarose from RIPA lysates of U2OS cells expressing FLAG-SAE2, blot for HDAC6; asynchronous cells or 16 h nocodazole and mitotic shake-off

- binding: binds
Substance: HDAC6, endogenous (from UniProt Q9UBN7 1-1215) (enzyme)
